Experimental data from the supplement of paper PMC10849652.
This is one part of the list.

Protein sequences, listed by entry. Tags and fused reporters are not part of them. Lines headed by an entry give the natural chain unless they say otherwise; changes in a name come on top.
UniProt Q6ICL3: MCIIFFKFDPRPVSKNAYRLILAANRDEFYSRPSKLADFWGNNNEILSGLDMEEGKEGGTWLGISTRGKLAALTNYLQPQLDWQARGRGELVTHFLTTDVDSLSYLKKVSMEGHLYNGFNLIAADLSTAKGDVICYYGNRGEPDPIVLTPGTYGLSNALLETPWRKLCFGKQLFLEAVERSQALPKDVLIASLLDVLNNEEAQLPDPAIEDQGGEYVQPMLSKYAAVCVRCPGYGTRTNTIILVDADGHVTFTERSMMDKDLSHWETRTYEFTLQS
UniProt Q17R31: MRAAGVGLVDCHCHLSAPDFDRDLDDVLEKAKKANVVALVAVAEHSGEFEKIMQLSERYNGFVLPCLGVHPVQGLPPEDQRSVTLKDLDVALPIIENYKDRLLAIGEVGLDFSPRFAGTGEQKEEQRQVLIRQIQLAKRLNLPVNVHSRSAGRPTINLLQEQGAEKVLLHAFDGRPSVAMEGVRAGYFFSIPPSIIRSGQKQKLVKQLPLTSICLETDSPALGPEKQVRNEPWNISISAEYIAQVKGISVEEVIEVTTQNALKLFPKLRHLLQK
UniProt Q9NVG8: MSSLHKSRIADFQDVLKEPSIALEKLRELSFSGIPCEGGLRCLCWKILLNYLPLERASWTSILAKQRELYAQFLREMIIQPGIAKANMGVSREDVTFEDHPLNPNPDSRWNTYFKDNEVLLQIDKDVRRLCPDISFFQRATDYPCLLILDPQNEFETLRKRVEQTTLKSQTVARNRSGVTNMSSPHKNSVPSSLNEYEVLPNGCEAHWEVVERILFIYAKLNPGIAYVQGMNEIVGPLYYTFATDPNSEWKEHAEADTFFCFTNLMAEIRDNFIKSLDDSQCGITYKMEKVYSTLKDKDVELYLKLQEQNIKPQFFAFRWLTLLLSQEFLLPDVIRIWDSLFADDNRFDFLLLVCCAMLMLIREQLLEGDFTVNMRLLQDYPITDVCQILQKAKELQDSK
UniProt Q12962, whole entry, looked up: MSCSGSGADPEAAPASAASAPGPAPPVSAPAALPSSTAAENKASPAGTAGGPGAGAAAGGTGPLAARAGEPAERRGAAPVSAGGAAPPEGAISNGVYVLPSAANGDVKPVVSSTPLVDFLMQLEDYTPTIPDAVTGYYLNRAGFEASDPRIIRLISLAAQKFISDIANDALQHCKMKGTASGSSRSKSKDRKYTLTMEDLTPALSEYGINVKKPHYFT
UniProt Q8NHG7: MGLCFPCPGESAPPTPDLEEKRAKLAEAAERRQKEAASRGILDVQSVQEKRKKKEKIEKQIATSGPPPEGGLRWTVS
UniProt Q86Y82: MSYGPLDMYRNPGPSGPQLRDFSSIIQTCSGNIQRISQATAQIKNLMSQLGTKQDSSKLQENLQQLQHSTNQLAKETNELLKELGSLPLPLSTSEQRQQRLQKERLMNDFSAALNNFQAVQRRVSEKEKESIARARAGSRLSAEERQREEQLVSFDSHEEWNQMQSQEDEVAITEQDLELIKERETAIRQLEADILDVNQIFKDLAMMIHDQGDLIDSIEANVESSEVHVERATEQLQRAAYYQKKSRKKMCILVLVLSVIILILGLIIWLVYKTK
UniProt Q9NRL3: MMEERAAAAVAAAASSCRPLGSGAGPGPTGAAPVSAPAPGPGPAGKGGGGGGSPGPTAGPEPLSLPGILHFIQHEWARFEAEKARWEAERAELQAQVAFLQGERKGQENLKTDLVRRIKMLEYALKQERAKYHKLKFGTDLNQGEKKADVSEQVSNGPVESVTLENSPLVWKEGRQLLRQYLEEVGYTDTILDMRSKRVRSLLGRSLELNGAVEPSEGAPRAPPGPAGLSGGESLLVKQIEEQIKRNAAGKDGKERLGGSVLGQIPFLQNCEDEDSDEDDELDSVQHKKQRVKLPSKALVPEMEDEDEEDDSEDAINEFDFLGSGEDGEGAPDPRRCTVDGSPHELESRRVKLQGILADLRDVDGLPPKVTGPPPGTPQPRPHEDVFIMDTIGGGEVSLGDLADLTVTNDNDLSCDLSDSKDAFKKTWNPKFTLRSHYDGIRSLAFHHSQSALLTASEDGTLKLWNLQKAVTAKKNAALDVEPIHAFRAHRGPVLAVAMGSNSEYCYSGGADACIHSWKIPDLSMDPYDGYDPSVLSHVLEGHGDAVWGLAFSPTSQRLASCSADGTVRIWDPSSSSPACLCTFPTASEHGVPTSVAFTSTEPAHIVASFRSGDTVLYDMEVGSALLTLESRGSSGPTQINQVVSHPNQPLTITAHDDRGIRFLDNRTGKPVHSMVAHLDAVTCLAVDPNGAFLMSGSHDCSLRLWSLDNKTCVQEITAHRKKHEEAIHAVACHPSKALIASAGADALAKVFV
UniProt O14662: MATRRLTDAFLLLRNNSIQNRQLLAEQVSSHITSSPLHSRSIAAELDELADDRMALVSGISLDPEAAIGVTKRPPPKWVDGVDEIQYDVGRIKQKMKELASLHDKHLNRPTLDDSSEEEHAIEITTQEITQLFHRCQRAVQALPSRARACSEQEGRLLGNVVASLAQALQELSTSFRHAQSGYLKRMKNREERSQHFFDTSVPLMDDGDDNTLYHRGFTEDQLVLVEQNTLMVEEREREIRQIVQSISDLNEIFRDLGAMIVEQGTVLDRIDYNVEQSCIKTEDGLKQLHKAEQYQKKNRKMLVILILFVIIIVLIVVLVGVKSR
UniProt P26639: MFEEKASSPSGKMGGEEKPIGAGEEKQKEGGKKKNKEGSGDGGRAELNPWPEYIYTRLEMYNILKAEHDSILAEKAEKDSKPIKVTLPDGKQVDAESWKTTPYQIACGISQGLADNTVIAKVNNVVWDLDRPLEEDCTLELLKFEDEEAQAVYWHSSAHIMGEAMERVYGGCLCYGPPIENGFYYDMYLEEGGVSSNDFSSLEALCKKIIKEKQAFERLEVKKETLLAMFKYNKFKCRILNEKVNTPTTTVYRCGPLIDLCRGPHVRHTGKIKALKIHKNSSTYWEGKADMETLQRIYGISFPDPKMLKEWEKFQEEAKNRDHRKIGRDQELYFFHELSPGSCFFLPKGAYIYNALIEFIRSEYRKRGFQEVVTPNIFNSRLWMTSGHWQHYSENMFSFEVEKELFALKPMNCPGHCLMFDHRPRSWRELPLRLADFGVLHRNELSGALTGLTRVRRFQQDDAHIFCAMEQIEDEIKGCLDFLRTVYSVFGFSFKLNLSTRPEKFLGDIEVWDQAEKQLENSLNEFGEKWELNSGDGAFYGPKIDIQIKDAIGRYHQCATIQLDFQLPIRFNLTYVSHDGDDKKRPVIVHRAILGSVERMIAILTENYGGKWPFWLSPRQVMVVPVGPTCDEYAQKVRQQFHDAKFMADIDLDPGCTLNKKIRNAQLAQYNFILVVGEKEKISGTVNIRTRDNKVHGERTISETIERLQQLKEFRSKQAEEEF
UniProt P27105: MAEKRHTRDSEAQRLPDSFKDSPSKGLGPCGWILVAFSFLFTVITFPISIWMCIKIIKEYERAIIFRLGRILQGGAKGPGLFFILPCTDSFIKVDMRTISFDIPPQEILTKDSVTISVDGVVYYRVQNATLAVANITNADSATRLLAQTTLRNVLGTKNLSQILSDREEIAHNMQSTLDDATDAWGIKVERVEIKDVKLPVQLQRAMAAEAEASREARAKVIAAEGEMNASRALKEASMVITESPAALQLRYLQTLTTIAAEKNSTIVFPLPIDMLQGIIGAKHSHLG
UniProt Q13190: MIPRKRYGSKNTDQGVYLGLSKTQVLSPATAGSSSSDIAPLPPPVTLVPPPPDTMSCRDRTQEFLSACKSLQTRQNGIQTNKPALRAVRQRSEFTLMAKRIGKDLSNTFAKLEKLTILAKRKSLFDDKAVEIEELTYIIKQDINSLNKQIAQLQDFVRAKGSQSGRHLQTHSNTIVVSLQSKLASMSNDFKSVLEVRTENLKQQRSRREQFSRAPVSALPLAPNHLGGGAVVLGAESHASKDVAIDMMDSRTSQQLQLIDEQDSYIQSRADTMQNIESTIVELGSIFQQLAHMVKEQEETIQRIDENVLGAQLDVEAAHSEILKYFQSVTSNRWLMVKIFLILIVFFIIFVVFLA
UniProt Q6P1X5, whole entry, looked up: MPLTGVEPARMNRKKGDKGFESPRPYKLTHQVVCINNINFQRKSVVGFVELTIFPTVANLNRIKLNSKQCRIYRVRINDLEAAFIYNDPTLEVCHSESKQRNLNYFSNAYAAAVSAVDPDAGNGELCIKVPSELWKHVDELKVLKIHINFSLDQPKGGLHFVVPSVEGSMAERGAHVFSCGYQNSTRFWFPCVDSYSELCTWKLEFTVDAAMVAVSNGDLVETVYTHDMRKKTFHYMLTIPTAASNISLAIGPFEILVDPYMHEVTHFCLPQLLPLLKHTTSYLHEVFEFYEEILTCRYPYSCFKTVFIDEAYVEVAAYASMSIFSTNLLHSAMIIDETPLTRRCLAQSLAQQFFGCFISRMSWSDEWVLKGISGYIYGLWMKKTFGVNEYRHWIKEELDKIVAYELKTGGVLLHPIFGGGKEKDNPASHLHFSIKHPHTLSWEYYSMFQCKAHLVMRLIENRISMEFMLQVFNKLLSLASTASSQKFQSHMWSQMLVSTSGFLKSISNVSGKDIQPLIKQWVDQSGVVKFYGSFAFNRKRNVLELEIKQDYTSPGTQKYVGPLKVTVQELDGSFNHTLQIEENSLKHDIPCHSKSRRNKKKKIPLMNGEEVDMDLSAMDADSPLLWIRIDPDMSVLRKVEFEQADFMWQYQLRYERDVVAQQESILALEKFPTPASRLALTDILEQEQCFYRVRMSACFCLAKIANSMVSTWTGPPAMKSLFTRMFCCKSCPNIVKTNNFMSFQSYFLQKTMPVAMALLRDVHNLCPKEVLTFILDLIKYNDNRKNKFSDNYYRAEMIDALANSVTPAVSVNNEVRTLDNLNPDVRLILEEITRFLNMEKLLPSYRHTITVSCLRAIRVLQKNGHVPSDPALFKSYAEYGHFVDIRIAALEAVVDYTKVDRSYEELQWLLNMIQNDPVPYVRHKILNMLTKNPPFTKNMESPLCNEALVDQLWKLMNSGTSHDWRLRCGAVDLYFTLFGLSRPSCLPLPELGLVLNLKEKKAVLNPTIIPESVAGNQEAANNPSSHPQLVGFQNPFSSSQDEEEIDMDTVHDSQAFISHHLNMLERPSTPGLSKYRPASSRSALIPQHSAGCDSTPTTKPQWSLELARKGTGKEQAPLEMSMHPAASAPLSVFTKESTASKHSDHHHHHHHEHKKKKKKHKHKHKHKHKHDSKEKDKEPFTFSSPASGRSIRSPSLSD
UniProt Q9Y5B9, whole entry, looked up: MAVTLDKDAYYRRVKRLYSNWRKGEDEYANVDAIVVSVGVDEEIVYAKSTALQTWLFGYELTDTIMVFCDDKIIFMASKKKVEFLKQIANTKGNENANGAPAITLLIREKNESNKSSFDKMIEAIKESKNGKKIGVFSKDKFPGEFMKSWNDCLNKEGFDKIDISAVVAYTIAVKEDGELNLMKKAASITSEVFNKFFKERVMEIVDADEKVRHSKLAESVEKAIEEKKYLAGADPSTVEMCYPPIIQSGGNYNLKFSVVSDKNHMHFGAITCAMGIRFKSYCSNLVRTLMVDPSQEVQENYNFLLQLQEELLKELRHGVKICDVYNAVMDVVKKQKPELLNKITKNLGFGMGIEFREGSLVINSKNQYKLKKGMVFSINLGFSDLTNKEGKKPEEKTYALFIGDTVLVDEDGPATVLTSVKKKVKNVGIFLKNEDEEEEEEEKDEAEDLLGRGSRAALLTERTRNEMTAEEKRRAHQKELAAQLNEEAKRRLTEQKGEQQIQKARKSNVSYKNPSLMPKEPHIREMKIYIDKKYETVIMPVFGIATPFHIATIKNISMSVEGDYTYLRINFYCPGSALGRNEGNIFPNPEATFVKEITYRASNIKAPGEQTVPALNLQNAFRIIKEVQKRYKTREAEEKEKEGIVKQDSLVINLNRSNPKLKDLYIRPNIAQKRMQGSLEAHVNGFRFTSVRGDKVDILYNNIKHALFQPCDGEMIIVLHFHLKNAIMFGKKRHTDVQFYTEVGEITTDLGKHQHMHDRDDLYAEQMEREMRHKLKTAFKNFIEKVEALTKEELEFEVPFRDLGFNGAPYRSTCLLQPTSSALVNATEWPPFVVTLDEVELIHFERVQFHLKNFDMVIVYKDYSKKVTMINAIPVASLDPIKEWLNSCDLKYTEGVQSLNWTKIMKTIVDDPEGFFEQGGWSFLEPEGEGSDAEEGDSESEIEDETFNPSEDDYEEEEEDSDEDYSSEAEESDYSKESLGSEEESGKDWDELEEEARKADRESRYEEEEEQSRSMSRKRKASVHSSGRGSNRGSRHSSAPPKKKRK
UniProt Q9UJZ1: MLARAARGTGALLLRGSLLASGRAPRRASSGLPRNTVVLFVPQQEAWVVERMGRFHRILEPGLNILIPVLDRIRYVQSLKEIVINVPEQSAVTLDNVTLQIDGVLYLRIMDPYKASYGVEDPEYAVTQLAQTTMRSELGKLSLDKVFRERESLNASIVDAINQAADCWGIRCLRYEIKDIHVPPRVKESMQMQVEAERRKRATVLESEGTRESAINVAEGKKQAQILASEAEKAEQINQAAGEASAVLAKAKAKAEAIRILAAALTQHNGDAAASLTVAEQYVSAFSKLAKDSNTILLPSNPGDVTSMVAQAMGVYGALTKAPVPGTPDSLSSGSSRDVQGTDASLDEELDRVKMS

How the values were obtained:
Test in all cases: log2 fold change, soluble protein after heating vs DMSO (PISA); higher = thermal stabilisation; K562 cells, 10 uM, 30 min; active = over 0.2 and 3.5 SD of the protein, either way, in both replicates (recomputed)
[1] = compound: CC[C@@H]1C(=O)N(C)c2cnc(Nc3ccc(C(=O)NC4CCN(C)CC4)cc3OC)nc2N1C1CCCC1
Outline: (§1)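 Thermal stability values are relative to control samples and come from duplicates. They are expressed as log2 fold changes. For measurement, K562 cells (2×10^6 cells/mL) received 10 μM compound for 30 min, and aliquots were heated for 3 min over 48°C-58°C, pooled, and extracted at 4°C in PBS with 0.5% NP-40. Soluble protein, the supernatant after 21,000xg for 90 min, was quantified by TMTpro 16plex LC-MS/MS with equalised channel sums.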

[2] = compound: CC[C@@H]1C(=O)N(C)c2cnc(Nc3ccc(C(=O)N[C@H]4CC[C@H](N5CCN(CC6CC6)CC5)CC4)cc3OC)nc2N1C(C)C [volasertib]
Outline: as §1

[3] = compound: CC[C@H](C)N1C=C(C2=C(C=C(C=C21)C3=CN=C(C=C3)N4CCNCC4)C(=O)NCC5=C(C=C(NC5=O)C)C)C
Outline: as §1

[4] = compound: CC[C@H](C)[C@@H](C(=O)N[C@@H]([C@@H](C)O)C(=O)N[C@@H](CC(C)C)C(=O)[C@]1(CO1)C)NC(=O)[C@H]([C@@H](C)CC)N(C)C(=O)C [epoxomicin]
Outline: as §1

[5] = compound: CCn1c(C(=O)N(C2CC2)C2CC2)cc2c3c(ncn3C)c(Nc3cc(C)n(C)n3)nc21
Outline: as §1

[6] = compound: CCn1cc(-c2ccnc3[nH]c(-c4cccc(CN(C)C)c4)cc23)c(-c2ccc(NC(=O)N(C)C)cc2)n1
Outline: as §1

[7] = compound: CN(C)CC(=O)Nc1ccc2[nH]c(=O)c3ccccc3c2c1
Outline: as §1

[8] = compound: CN(CCOC1=CC=C(C=C1)C[C@H]2C(=O)NC(=O)S2)C3=CC=CC=N3 (racemic) [rosiglitazone]
Outline: as §1

[9] = compound: CN1C2=C(C3=C1C(=O)N(N=C3)CC4=CC(=CC=C4)N)SC(=C2)S(=O)C
Outline: as §1

[10] = compound: CN1CCC(CNc2ccc3ncc(-c4cccc(OC(F)(F)F)c4)n3n2)CC1
Outline: as §1

| Target | log2 fold change [1] | log2 fold change [2] | log2 fold change [3] | log2 fold change [4] | log2 fold change [5] | log2 fold change [6] | log2 fold change [7] | log2 fold change [8] | log2 fold change [9] | log2 fold change [10] |
| --- | --- | --- | --- | --- | --- | --- | --- | --- | --- | --- |
| TANGO2 isoform 4 (UniProt Q6ICL3) | inactive: -0.008 | inactive: -0.002 | inactive: 0.037 | inactive: -0.001 | inactive: 0 | inactive: -0.032 | inactive: -0.016 | inactive: 0.022 | inactive: -0.133 | inactive: -0.013 |
| TACC1 isoform 2 (UniProt O75410) | inactive: -0.025 | inactive: -0.082 | inactive: -0.021 | inactive: 0.031 | inactive: 0.014 | inactive: -0.009 | inactive: -0.008 | inactive: 0.013 | inactive: -0.053 | inactive: -0.023 |
| TATDN3 isoform 3 (UniProt Q17R31) | inactive: -0.008 | inactive: 0.121 | inactive: 0.015 | inactive: 0.017 | inactive: 0.056 | inactive: 0.031 | inactive: -0.082 | inactive: 0.017 | inactive: -0.079 | inactive: 0.118 |
| STRAP isoform 2 (UniProt Q9Y3F4) | inactive: 0.078 | inactive: 0.064 | inactive: -0.023 | inactive: -0.025 | inactive: 0.002 | inactive: 0.022 | inactive: -0.016 | inactive: -0.019 | inactive: -0.011 | inactive: -0.02 |
| STT3A (UniProt P46977) | inactive: -0.015 | inactive: 0.014 | inactive: -0.025 | inactive: 0 | inactive: 0.028 | inactive: 0.01 | inactive: -0.017 | inactive: 0.009 | inactive: -0.002 | inactive: 0.005 |
| TBC1D13 (UniProt Q9NVG8) | inactive: 0.016 | inactive: -0.02 | inactive: 0.006 | inactive: 0.014 | inactive: 0.018 | inactive: -0.029 | inactive: 0.003 | inactive: 0.008 | inactive: -0.075 | inactive: -0.08 |
| STRIP2 (UniProt Q9ULQ0) | inactive: 0.028 | inactive: -0.189 | inactive: -0.106 | inactive: -0.05 | inactive: -0.036 | inactive: -0.036 | inactive: 0.053 | inactive: 0.061 | inactive: -0.213 | inactive: -0.04 |
| TACO1 (UniProt Q9BSH4) | inactive: -0.293 | inactive: -0.041 | inactive: -0.012 | inactive: 0.076 | inactive: -0.013 | inactive: -0.147 | inactive: 0.078 | inactive: 0.133 | inactive: -0.012 | inactive: -0.207 |
| SYVN1 (UniProt Q86TM6) | inactive: 0.076 | inactive: -0.085 | inactive: -0.011 | inactive: -0.02 | inactive: -0.013 | inactive: -0.001 | inactive: 0.028 | inactive: 0.025 | inactive: -0.054 | inactive: 0.019 |
| TAF10 (UniProt Q12962) | inactive: 0.049 | inactive: 0.039 | inactive: 0 | inactive: 0.023 | inactive: 0.081 | inactive: 0.01 | inactive: -0.035 | inactive: -0.013 | inactive: -0.034 | inactive: 0.183 |
| SVIP (UniProt Q8NHG7) | inactive: 0.124 | inactive: 0.021 | inactive: -0.009 | inactive: -0.062 | inactive: 0.062 | inactive: -0.034 | inactive: -0.067 | inactive: -0.002 |  | inactive: 0.03 |
| STX12 (UniProt Q86Y82) | inactive: 0.052 | inactive: 0.059 | inactive: -0.013 | inactive: 0.058 | inactive: 0.045 | inactive: -0.017 | inactive: 0.003 | inactive: -0.021 | inactive: -0.026 | inactive: -0.091 |
| SYP (UniProt P08247) | inactive: -0.018 | inactive: 0.108 | inactive: -0.109 | inactive: -0.167 | inactive: 0.021 | inactive: -0.025 | inactive: 0.001 | inactive: 0.033 | inactive: -0.003 | inactive: 0.116 |
| STRN4 isoform 3 (UniProt Q9NRL3) | inactive: -0.05 | inactive: -0.084 | inactive: -0.017 | inactive: 0.072 | inactive: -0.001 | inactive: -0.135 | inactive: 0.006 | inactive: 0.024 | inactive: -0.038 | inactive: -0.056 |
| SUGT1 (UniProt Q9Y2Z0) | inactive: -0.065 | inactive: -0.11 | inactive: 0.013 | inactive: 0.041 | inactive: -0.008 | inactive: -0.033 | inactive: -0.006 | inactive: 0.024 | inactive: -0.077 | inactive: -0.041 |
| STX16 isoform 2 (UniProt O14662) | inactive: 0 | inactive: -0.108 | inactive: 0.06 | inactive: -0.11 | inactive: 0.021 | inactive: -0.034 | inactive: 0.022 | inactive: 0.051 | inactive: 0.048 | inactive: -0.026 |

Some of the entries above, reformatted.
Target | log2 fold change [1] | log2 fold change [2] | log2 fold change [3] | log2 fold change [4] | log2 fold change [5] | log2 fold change [6] | log2 fold change [7] | log2 fold change [8] | log2 fold change [9] | log2 fold change [10]
TATDN3 isoform 3 (UniProt Q17R31) | inactive: -0.008 | inactive: 0.121 | inactive: 0.015 | inactive: 0.017 | inactive: 0.056 | inactive: 0.031 | inactive: -0.082 | inactive: 0.017 | inactive: -0.079 | inactive: 0.118
STRAP isoform 2 (UniProt Q9Y3F4) | inactive: 0.078 | inactive: 0.064 | inactive: -0.023 | inactive: -0.025 | inactive: 0.002 | inactive: 0.022 | inactive: -0.016 | inactive: -0.019 | inactive: -0.011 | inactive: -0.02
STT3A (UniProt P46977) | inactive: -0.015 | inactive: 0.014 | inactive: -0.025 | inactive: 0 | inactive: 0.028 | inactive: 0.01 | inactive: -0.017 | inactive: 0.009 | inactive: -0.002 | inactive: 0.005
TBC1D13 (UniProt Q9NVG8) | inactive: 0.016 | inactive: -0.02 | inactive: 0.006 | inactive: 0.014 | inactive: 0.018 | inactive: -0.029 | inactive: 0.003 | inactive: 0.008 | inactive: -0.075 | inactive: -0.08
STRIP2 (UniProt Q9ULQ0) | inactive: 0.028 | inactive: -0.189 | inactive: -0.106 | inactive: -0.05 | inactive: -0.036 | inactive: -0.036 | inactive: 0.053 | inactive: 0.061 | inactive: -0.213 | inactive: -0.04
TACO1 (UniProt Q9BSH4) | inactive: -0.293 | inactive: -0.041 | inactive: -0.012 | inactive: 0.076 | inactive: -0.013 | inactive: -0.147 | inactive: 0.078 | inactive: 0.133 | inactive: -0.012 | inactive: -0.207
SYVN1 (UniProt Q86TM6) | inactive: 0.076 | inactive: -0.085 | inactive: -0.011 | inactive: -0.02 | inactive: -0.013 | inactive: -0.001 | inactive: 0.028 | inactive: 0.025 | inactive: -0.054 | inactive: 0.019
TAF10 (UniProt Q12962) | inactive: 0.049 | inactive: 0.039 | inactive: 0 | inactive: 0.023 | inactive: 0.081 | inactive: 0.01 | inactive: -0.035 | inactive: -0.013 | inactive: -0.034 | inactive: 0.183

(continued)

| Target | log2 fold change [1] | log2 fold change [2] | log2 fold change [3] | log2 fold change [4] | log2 fold change [5] | log2 fold change [6] | log2 fold change [7] | log2 fold change [8] | log2 fold change [9] | log2 fold change [10] |
| --- | --- | --- | --- | --- | --- | --- | --- | --- | --- | --- |
| TARDBP (UniProt Q13148) | inactive: -0.008 | inactive: -0.267 | inactive: 0.012 | inactive: -0.092 | inactive: -0.214 | inactive: 0.073 | inactive: -0.067 | inactive: 0.021 |  | inactive: -0.018 |
| TARS1 (UniProt P26639) | inactive: -0.009 | inactive: -0.042 | inactive: 0.045 | inactive: 0 | inactive: 0.008 | inactive: -0.094 | inactive: 0.012 | inactive: 0.041 | inactive: -0.043 | inactive: -0.098 |
| TACC3 (UniProt Q9Y6A5) | inactive: -0.024 | inactive: 0.024 | inactive: -0.011 | inactive: 0.023 | inactive: 0.009 | inactive: 0 | inactive: 0.011 | inactive: 0 | inactive: -0.052 | inactive: 0.007 |
| STOM (UniProt P27105) | inactive: 0.087 | inactive: 0.096 | inactive: -0.08 | inactive: -0.006 |  | inactive: -0.164 | inactive: -0.057 |  | inactive: 0.085 | active: 0.317 |
| SUPV3L1 (UniProt Q8IYB8) | inactive: -0.021 | inactive: -0.185 | inactive: 0.025 | inactive: -0.001 | inactive: -0.021 | inactive: -0.004 | inactive: -0.008 | inactive: 0.022 | inactive: -0.004 | inactive: 0.005 |
| STX5 (UniProt Q13190) | inactive: -0.046 | inactive: -0.206 | inactive: 0.109 | inactive: -0.014 | inactive: -0.096 | inactive: -0.132 | inactive: 0.067 | inactive: 0.056 | inactive: 0.006 | inactive: -0.025 |
| TAF2 (UniProt Q6P1X5) | inactive: -0.016 | inactive: -0.012 | inactive: 0.055 | inactive: -0.14 |  | inactive: 0.132 | inactive: -0.013 | inactive: -0.013 | inactive: 0.095 | inactive: -0.193 |
| TAF8 isoform 2 (UniProt Q7Z7C8) | inactive: 0.044 | inactive: 0.052 | inactive: 0.011 | inactive: 0.041 | inactive: 0.045 | inactive: -0.062 | inactive: 0.006 | inactive: 0 | inactive: 0.116 | inactive: -0.045 |
| STMN3 (UniProt Q9NZ72) | inactive: 0.023 | inactive: 0.087 | inactive: -0.011 | inactive: 0.121 | inactive: 0.109 | inactive: 0.057 | inactive: -0.031 | inactive: -0.019 | inactive: 0 | inactive: -0.011 |
| STUB1 (UniProt Q9UNE7) | inactive: 0.034 | inactive: -0.175 | inactive: 0.065 | inactive: -0.076 | inactive: -0.041 | inactive: 0.02 | inactive: -0.022 | inactive: -0.013 | inactive: 0.281 | inactive: -0.041 |
| STX8 (UniProt Q9UNK0) | inactive: 0.04 | inactive: 0.021 | inactive: -0.065 | inactive: -0.068 | inactive: 0.071 | inactive: 0.032 | inactive: -0.02 | inactive: -0.03 | inactive: -0.11 | inactive: -0.051 |
| STXBP5 (UniProt Q5T5C0) | inactive: -0.085 | active: -0.344 | inactive: 0.021 | inactive: 0.151 |  | inactive: 0.046 | inactive: 0.033 |  | inactive: 0.015 | inactive: -0.006 |
| SUPT16H (UniProt Q9Y5B9) | inactive: -0.426 | inactive: -0.363 | inactive: 0.095 | inactive: 0.085 |  | inactive: -0.089 | inactive: 0.285 |  | inactive: -0.02 | inactive: -0.198 |
| STX7 (UniProt O15400) | inactive: -0.021 | inactive: 0.057 | inactive: -0.03 | inactive: -0.008 |  | inactive: 0.094 | inactive: -0.006 |  | inactive: 0.005 | inactive: -0.116 |
| STOML2 (UniProt Q9UJZ1) | inactive: 0.03 | inactive: 0.074 | inactive: -0.038 | inactive: 0.004 | inactive: -0.029 | inactive: 0.015 | inactive: -0.023 | inactive: -0.019 | inactive: -0.029 | inactive: 0.082 |
